Experimental data: PubChem BioAssay AID248 (DTP/NCI, 2004)
The list does not hold the whole screen: it gathers tests that were run many times, whatever their T/C, doses with no T/C, and many T/C values between a quarter and a half above the control. Other doses and runs of a compound stand elsewhere. T/C: endpoint of the treated group in % of that of the vehicle group. Some entries give survivors of the animals treated and no T/C: the source holds a T/C of zero for them, seemingly a mark for toxic or unscored doses. Some doses without a T/C left all or most animals alive at the check, yet need not have been tolerated: the source hardly ever lists a survival T/C far under the control, and the zero likely stands for such cases as well. Survivors were counted at the toxicity check, usually on the fifth day, unless a day is given; later deaths do not show. Schedules are NCI's codes, taken here to give the interval after Q, in days (D) or hours (H), and the number of doses after X. Some schedule codes hold Z or #, which are not explained here. Some doses were run more than once; the values are given in rising order. Where survival is the endpoint, this PubChem deposit counts one and a half times the control or more as active, and values a quarter to a half above the control carry no call in these data; other NCI protocols may use other cut-offs. Some T/C values are followed by the survivors on the day toxicity was checked, most often the fifth; without a count, all were alive then.

System: L1210 leukemia ip in BDF1 mice, survival T/C
Test: NCI In Vivo Anticancer Drug Screen. Data for tumor model L1210 Leukemia (intraperitoneal) in B6D2F1 (BDF1) mice
Settings: higher T/C = longer survival
[1] = T/C endpoint: mean survival time, dose: 500.0 mg/kg/injection, schedule: Q01DX005 (ip), vehicle: clinical formulation
[2] = T/C endpoint: mean survival time, dose: 1008.0 mg/kg/injection, schedule: Q01DX001 (ip), vehicle: carboxymethylcellulose (CMC)

CN(C)/N=N/c1nc[nH]c1C(N)=O was tested, and the T/C (T/C endpoint: mean survival time, dose: 418.0 mg/kg/injection, schedule: Q01DX001 (ip), vehicle: carboxymethylcellulose (CMC)) was 125 % of control [9 of 10 alive], the T/C (T/C endpoint: mean survival time, dose: 450.0 mg/kg/injection, schedule: Q01DX001 (ip), vehicle: carboxymethylcellulose (CMC), evaluated on day 5) was 108 and 138 % of control and the T/C (T/C endpoint: mean survival time, dose: 450.0 mg/kg/injection, schedule: Q01DX001 (ip), vehicle: carboxymethylcellulose (CMC), evaluated on day 45) was 109 and 138 % of control. For the same molecule, the survivor count (T/C endpoint: mean survival time, dose: 450.0 mg/kg/injection, schedule: Q01DX Z (ip), vehicle: carboxymethylcellulose (CMC)) was 0 of 6, the T/C (T/C endpoint: mean survival time, dose: 464.0 mg/kg/injection, schedule: Q04DX002 (ip), vehicle: carboxymethylcellulose (CMC)) was 147, 148, 155, 164 % of control and the T/C (T/C endpoint: mean survival time, dose: 500.0 mg/kg/injection, schedule: Q01DX001 (ip), vehicle: carboxymethylcellulose (CMC)) was 138 % of control. The T/C (T/C endpoint: mean survival time, dose: 500.0 mg/kg/injection, schedule: Q01DX001 (ip), vehicle: saline with Tween-80) was 132 % of control [8 of 10 alive], the T/C [1] was 106 % of control and the survivor count [1] was 0 of 6 and 1 of 6. For the same molecule, the survivor count (T/C endpoint: mean survival time, dose: 512.0 mg/kg/injection, schedule: Q01DX005 (ip), vehicle: water) was 9 of 9, the T/C (T/C endpoint: mean survival time, dose: 600.0 mg/kg/injection, schedule: Q01DX001 (ip), vehicle: carboxymethylcellulose (CMC)) was 143 % of control and the survivor count (T/C endpoint: mean survival time, dose: 600.0 mg/kg/injection, schedule: Q01DX001 (ip), vehicle: other) was 5 of 10. For the same molecule, the survivor count (T/C endpoint: mean survival time, dose: 600.0 mg/kg/injection, schedule: Q03DX Z (ip), vehicle: carboxymethylcellulose (CMC)) was 0 of 6, the T/C (T/C endpoint: mean survival time, dose: 600.0 mg/kg/injection, schedule: Q07DX003 (ip), vehicle: other) was 148 % of control and the T/C (T/C endpoint: mean survival time, dose: 625.0 mg/kg/injection, schedule: Q01DX001 (ip), vehicle: carboxymethylcellulose (CMC)) was 136 % of control. For the same molecule, the T/C (T/C endpoint: mean survival time, dose: 672.0 mg/kg/injection, schedule: Q01DX001 (ip), vehicle: carboxymethylcellulose (CMC), evaluated on day 5) was 120 [8 of 9 alive] and 147 % of control, the T/C (T/C endpoint: mean survival time, dose: 672.0 mg/kg/injection, schedule: Q01DX001 (ip), vehicle: carboxymethylcellulose (CMC), evaluated on day 45) was 123, 124, 135 [7 of 10 alive], 147 % of control and the survivor count (T/C endpoint: mean survival time, dose: 672.0 mg/kg/injection, schedule: Q01DX001 (ip), vehicle: carboxymethylcellulose (CMC)) was 9 of 10. The T/C (T/C endpoint: mean survival time, dose: 700.0 mg/kg/injection, schedule: Q01DX001 (ip), vehicle: carboxymethylcellulose (CMC)) was 139 % of control, the survivor count (T/C endpoint: mean survival time, dose: 700.0 mg/kg/injection, schedule: Q07DX Z (ip), vehicle: carboxymethylcellulose (CMC)) was 1 of 6 and the survivor count (T/C endpoint: mean survival time, dose: 720.0 mg/kg/injection, schedule: Q01DX001 (ip), vehicle: carboxymethylcellulose (CMC)) was 3 of 6. The survivor count (T/C endpoint: mean survival time, dose: 800.0 mg/kg/injection, schedule: Q01DX001 (ip), vehicle: carboxymethylcellulose (CMC)) was 0 of 10, the T/C (T/C endpoint: mean survival time, dose: 800.0 mg/kg/injection, schedule: Q01DX001 (ip), vehicle: steroid suspending solution, evaluated on day 5) was 127 % of control and the T/C (T/C endpoint: mean survival time, dose: 800.0 mg/kg/injection, schedule: Q01DX001 (ip), vehicle: steroid suspending solution, evaluated on day 19) was 127 % of control. The survivor count (T/C endpoint: mean survival time, dose: 800.0 mg/kg/injection, schedule: Q04DX003 (ip), vehicle: Klucel (hydroxypropylcellulose) (HPC)) was 1 of 6, the survivor count (T/C endpoint: mean survival time, dose: 900.0 mg/kg/injection, schedule: Q01DX001 (ip), vehicle: carboxymethylcellulose (CMC)) was 5 of 10 and the survivor count (T/C endpoint: mean survival time, dose: 900.0 mg/kg/injection, schedule: Q01DX001 (ip), vehicle: other) was 4 of 10. The survivor count (T/C endpoint: mean survival time, dose: 928.0 mg/kg/injection, schedule: Q04DX002 (ip), vehicle: carboxymethylcellulose (CMC)) was 1 of 3, the T/C (T/C endpoint: mean survival time, dose: 1000.0 mg/kg/injection, schedule: Q01DX001 (ip), vehicle: carboxymethylcellulose (CMC)) was 138 % of control and the T/C [2] was 134 [6 of 8 alive] and 165 % of control. The survivor count [2] was 5 of 8 and 8 of 10, the survivor count (T/C endpoint: mean survival time, dose: 1080.0 mg/kg/injection, schedule: Q01DX001 (ip), vehicle: carboxymethylcellulose (CMC)) was 2 of 6 and the survivor count (T/C endpoint: mean survival time, dose: 1200.0 mg/kg/injection, schedule: Q03DX Z (ip), vehicle: carboxymethylcellulose (CMC)) was 0 of 6. The survivor count (T/C endpoint: mean survival time, dose: 1350.0 mg/kg/injection, schedule: Q01DX001 (ip), vehicle: carboxymethylcellulose (CMC)) was 3 of 10, the survivor count (T/C endpoint: mean survival time, dose: 1350.0 mg/kg/injection, schedule: Q01DX001 (ip), vehicle: other) was 1 of 9 and the survivor count (T/C endpoint: mean survival time, dose: 1400.0 mg/kg/injection, schedule: Q07DX Z (ip), vehicle: carboxymethylcellulose (CMC)) was 0 of 6. The survivor count (T/C endpoint: mean survival time, dose: 1600.0 mg/kg/injection, schedule: Q01DX Z (oral), vehicle: carboxymethylcellulose (CMC)) was 4 of 6, the survivor count (T/C endpoint: mean survival time, dose: 1620.0 mg/kg/injection, schedule: Q01DX001 (ip), vehicle: carboxymethylcellulose (CMC)) was 1 of 6 and the survivor count (T/C endpoint: mean survival time, dose: 2000.0 mg/kg/injection, schedule: Q01DX001 (ip), vehicle: carboxymethylcellulose (CMC)) was 6 of 6. For the same molecule, the T/C (T/C endpoint: median survival time, dose: 25.0 mg/kg/injection, schedule: Q01DX017 (ip), vehicle: steroid suspending solution) was 131 % of control and the T/C (T/C endpoint: median survival time, dose: 39.0 mg/kg/injection, schedule: Q01DX033 (ip), vehicle: other) was 125 % of control.
